In the supplement of paper PMC8728848:
Some of the results follow.

How the values were obtained:
Test in all cases: glycan array binding signal (z-score within array); higher = stronger binding
Details in all cases: glycan notation: IUPAC condensed, linker removed
Fuc(a1-2)Gal = target: Fuc(a1-2)Gal
In short: (§1)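 The Consortium for Functional Glycomics database supplied 3228 glycan arrays, of which those lacking an available protein sequence were dropped. The binding signal, a within-array Z-score, was averaged across arrays of the same protein sequence and across linkers. Negative scores can be read as non-binding.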

Fuc(a1-2)Gal(b1-3)GalNAc = target: Fuc(a1-2)Gal(b1-3)GalNAc
In short: as §1

[1] = target: Fuc(a1-2)Gal(b1-3)GalNAc(b1-3)Gal
In short: as §1

[2] = target: Fuc(a1-2)Gal(b1-3)GalNAc(b1-3)Gal(a1-4)Gal(b1-4)Glc
In short: as §1

[3] = target: Fuc(a1-2)Gal(b1-3)GalNAc(b1-3)Gal(b1-4)Glc
In short: as §1

[4] = target: Fuc(a1-2)Gal(b1-3)GalNAc(b1-4)[Neu5Ac(a2-3)]Gal(b1-4)Glc
In short: as §1

Fuc(a1-2)Gal(b1-3)GlcNAc = target: Fuc(a1-2)Gal(b1-3)GlcNAc
In short: as §1

[5] = target: Fuc(a1-2)Gal(b1-3)[Fuc(a1-4)]GlcNAc
In short: as §1

Fuc(a1-2)Gal(b1-4)Glc = target: Fuc(a1-2)Gal(b1-4)Glc
In short: as §1

Fuc(a1-2)Gal(b1-4)Glc6S = target: Fuc(a1-2)Gal(b1-4)Glc6S
In short: as §1

Fuc(a1-2)Gal(b1-4)GlcNAc = target: Fuc(a1-2)Gal(b1-4)GlcNAc
In short: as §1

[6] = target: Fuc(a1-2)Gal(b1-4)GlcNAc(b1-3)Gal(b1-4)GlcNAc
In short: as §1

[7] = target: Fuc(a1-2)Gal(b1-4)GlcNAc(b1-3)Gal(b1-4)GlcNAc(b1-3)Gal(b1-4)GlcNAc
In short: as §1

[8] = target: Fuc(a1-2)Gal(b1-4)GlcNAc6S
In short: as §1

[9] = target: Fuc(a1-2)Gal(b1-4)[Fuc(a1-3)]GalNAc(b1-3)Gal(b1-4)[Fuc(a1-3)]GlcNAc
In short: as §1

[10] = target: Fuc(a1-2)Gal(b1-4)[Fuc(a1-3)]GalNAc(b1-3)Gal(b1-4)[Fuc(a1-3)]GlcNAc(b1-3)Gal(b1-4)[Fuc(a1-3)]GalNAc
In short: as §1

[11] = target: Fuc(a1-2)Gal(b1-4)[Fuc(a1-3)]GlcNAc
In short: as §1

Fuc(a1-2)Gal6S(b1-4)Glc = target: Fuc(a1-2)Gal6S(b1-4)Glc
In short: as §1

[12] = target: Fuc(a1-2)Gal6S(b1-4)Glc6S
In short: as §1

[13] = target: Fuc(a1-2)Gal6S(b1-4)GlcNAc
In short: as §1

Fuc(a1-2)GlcNAc = target: Fuc(a1-2)GlcNAc
In short: as §1

Fuc(a1-2)[Gal(a1-3)]Gal = target: Fuc(a1-2)[Gal(a1-3)]Gal
In short: as §1

[14] = target: Fuc(a1-2)[Gal(a1-3)]Gal(b1-3)GlcNAc
In short: as §1

[15] = target: Fuc(a1-2)[Gal(a1-3)]Gal(b1-4)Glc
In short: as §1

[16] = target: Fuc(a1-2)[Gal(a1-3)]Gal(b1-4)GlcNAc
In short: as §1

[17] = target: Fuc(a1-2)[Gal(a1-3)]Gal(b1-4)[Fuc(a1-3)]GlcNAc
In short: as §1

[18] = target: Fuc(a1-2)[Gal(a1-4)]Gal(b1-4)GalNAc
In short: as §1

[19] = target: Fuc(a1-2)[Gal(a1-4)]Gal(b1-4)GlcNAc
In short: as §1

[20] = target: Fuc(a1-2)[GalNAc(a1-3)]Gal
In short: as §1

[21] = target: Fuc(a1-2)[GalNAc(a1-3)]Gal(b1-3)GlcNAc
In short: as §1

[22] = target: Fuc(a1-2)[GalNAc(a1-3)]Gal(b1-4)Glc
In short: as §1

[23] = target: Fuc(a1-2)[GalNAc(a1-3)]Gal(b1-4)GlcNAc
In short: as §1

[24] = target: Fuc(a1-2)[GalNAc(a1-3)]Gal(b1-4)[Fuc(a1-3)]GlcNAc
In short: as §1

[25] = target: Fuc(a1-2)[GalNAc(a1-4)]Gal(b1-4)GlcNAc
In short: as §1

[26] = target: Fuc(a1-2)[GalNAc(b1-3)]Gal
In short: as §1

Fuc(a1-3)GlcNAc = target: Fuc(a1-3)GlcNAc
In short: as §1

[27] = target: Fuc(a1-3)[Gal(b1-4)]Glc6S
In short: as §1

[28] = target: Fuc(a1-3)[Gal(b1-4)]GlcNAc
In short: as §1

[29] = target: Fuc(a1-3)[Gal(b1-4)]GlcNAc(b1-3)Gal(b1-3)[Fuc(a1-4)]GlcNAc
In short: as §1

[30] = target: Fuc(a1-3)[Gal(b1-4)]GlcNAc(b1-3)Gal(b1-4)[Fuc(a1-3)]GlcNAc
In short: as §1

[31] = target: Fuc(a1-3)[Gal(b1-4)]GlcNAc(b1-3)Gal(b1-4)[Fuc(a1-3)]GlcNAc(b1-3)Gal(b1-4)[Fuc(a1-3)]GlcNAc
In short: as §1

[32] = target: Fuc(a1-3)[Gal(b1-4)]GlcNAc(b1-4)Gal(b1-4)[Fuc(a1-3)]GlcNAc
In short: as §1

[33] = target: Fuc(a1-3)[Gal(b1-4)]GlcNAc(b1-4)Gal(b1-4)[Fuc(a1-3)]GlcNAc(b1-4)Gal(b1-4)[Fuc(a1-3)]GlcNAc
In short: as §1

[34] = target: Fuc(a1-3)[Gal(b1-4)]GlcNAc6S
In short: as §1

[35] = target: Fuc(a1-3)[Gal3S(b1-4)]Glc
In short: as §1

[36] = target: Fuc(a1-3)[Gal3S(b1-4)]Glc6S
In short: as §1

[37] = target: Fuc(a1-3)[Gal3S(b1-4)]GlcNAc
In short: as §1

[38] = target: Fuc(a1-3)[Gal3S(b1-4)]GlcNAc6S
In short: as §1

[39] = target: Fuc(a1-3)[GalNAc(b1-4)]Gal(b1-4)GlcNAc
In short: as §1

Fuc(a1-4)GlcNAc = target: Fuc(a1-4)GlcNAc
In short: as §1

Fuc(b1-3)GlcNAc = target: Fuc(b1-3)GlcNAc
In short: as §1

Gal(a1-2)Gal = target: Gal(a1-2)Gal
In short: as §1

Gal(a1-3)Gal = target: Gal(a1-3)Gal
In short: as §1

Gal(a1-3)Gal(b1-3)Glc = target: Gal(a1-3)Gal(b1-3)Glc
In short: as §1

Gal(a1-3)Gal(b1-3)GlcNAc = target: Gal(a1-3)Gal(b1-3)GlcNAc
In short: as §1

Gal(a1-3)Gal(b1-4)Glc = target: Gal(a1-3)Gal(b1-4)Glc
In short: as §1

Gal(a1-3)Gal(b1-4)GlcNAc = target: Gal(a1-3)Gal(b1-4)GlcNAc
In short: as §1

[40] = target: Gal(a1-3)Gal(b1-4)[Fuc(a1-3)]GalNAc
In short: as §1

[41] = target: Gal(a1-3)Gal(b1-4)[Fuc(a1-3)]GlcNAc
In short: as §1

Gal(a1-3)GalNAc = target: Gal(a1-3)GalNAc
In short: as §1

B1: TIM-1 (Mus musculus), AAL35774 (protein)
chain: MNQIQVFISGLILLLPGAVDSYVEVKGVVGHPVTLPCTYSTYRGITTTCWGRGQCPSSACQNTLIWTNGHRVTYQKSSRYNLKGHISEGDVSLTIENSVESDSGLYCCRVEIPGWFNDQKVTFSLQVKPEIPTRPPTRPTTTRPTATGRPTTISTRSTHVPTSIRVSTSTPPTSTHTWTHKPEPTTFCPHETTAEVTGIPSHTPTDWNGTVTSSGDTWSNHTEAIPPGKPQKNPTKGFYVGICIAALLLLLLVSTVAITRYILMKRKSASLSVVAFRVSKIEALQNAAVVHSRAEDNIYIVEDRP
With B1 the “glycan array binding signal (z-score)” value (Fuc(a1-2)Gal) was 0.048, the “glycan array binding signal (z-score)” value (Fuc(a1-2)Gal(b1-3)GalNAc) was -0.16 and the “glycan array binding signal (z-score)” value [1] was 1.08. The “glycan array binding signal (z-score)” value [2] was -0.186, the “glycan array binding signal (z-score)” value [3] was -0.23 and the “glycan array binding signal (z-score)” value [4] was -0.103. For the same binder, the “glycan array binding signal (z-score)” value (Fuc(a1-2)Gal(b1-3)GlcNAc) was -0.171, the “glycan array binding signal (z-score)” value [5] was -0.554 and the “glycan array binding signal (z-score)” value (Fuc(a1-2)Gal(b1-4)Glc) was 0.483. The “glycan array binding signal (z-score)” value (Fuc(a1-2)Gal(b1-4)Glc6S) was -0.504, the “glycan array binding signal (z-score)” value (Fuc(a1-2)Gal(b1-4)GlcNAc) was 0.782 and the “glycan array binding signal (z-score)” value [6] was -0.209. For the same binder, the “glycan array binding signal (z-score)” value [7] was 0.178, the “glycan array binding signal (z-score)” value [8] was -0.823 and the “glycan array binding signal (z-score)” value [9] was -0.386. The “glycan array binding signal (z-score)” value [10] was -0.596, the “glycan array binding signal (z-score)” value [11] was -0.385 and the “glycan array binding signal (z-score)” value (Fuc(a1-2)Gal6S(b1-4)Glc) was -0.753. The “glycan array binding signal (z-score)” value [12] was -0.608, the “glycan array binding signal (z-score)” value [13] was -0.968 and the “glycan array binding signal (z-score)” value (Fuc(a1-2)GlcNAc) was -0.289. For the same binder, the “glycan array binding signal (z-score)” value (Fuc(a1-2)[Gal(a1-3)]Gal) was 0.559, the “glycan array binding signal (z-score)” value [14] was -0.421 and the “glycan array binding signal (z-score)” value [15] was -0.009. For the same binder, the “glycan array binding signal (z-score)” value [16] was -0.256, the “glycan array binding signal (z-score)” value [17] was 0.1 and the “glycan array binding signal (z-score)” value [18] was -0.058. The “glycan array binding signal (z-score)” value [19] was 0.88, the “glycan array binding signal (z-score)” value [20] was -0.325 and the “glycan array binding signal (z-score)” value [21] was -0.323. For the same binder, the “glycan array binding signal (z-score)” value [22] was -0.228, the “glycan array binding signal (z-score)” value [23] was -0.268 and the “glycan array binding signal (z-score)” value [24] was -0.493. For the same binder, the “glycan array binding signal (z-score)” value [25] was -0.239, the “glycan array binding signal (z-score)” value [26] was -0.205 and the “glycan array binding signal (z-score)” value (Fuc(a1-3)GlcNAc) was -0.318. The “glycan array binding signal (z-score)” value [27] was -0.34, the “glycan array binding signal (z-score)” value [28] was -0.275 and the “glycan array binding signal (z-score)” value [29] was 0.109. For the same binder, the “glycan array binding signal (z-score)” value [30] was -0.089, the “glycan array binding signal (z-score)” value [31] was -0.43 and the “glycan array binding signal (z-score)” value [32] was 0.339. For the same binder, the “glycan array binding signal (z-score)” value [33] was -0.967, the “glycan array binding signal (z-score)” value [34] was -0.818 and the “glycan array binding signal (z-score)” value [35] was -0.853. The “glycan array binding signal (z-score)” value [36] was 0.935, the “glycan array binding signal (z-score)” value [37] was -0.291 and the “glycan array binding signal (z-score)” value [38] was 0.826. The “glycan array binding signal (z-score)” value [39] was -0.76, the “glycan array binding signal (z-score)” value (Fuc(a1-4)GlcNAc) was 0.748 and the “glycan array binding signal (z-score)” value (Fuc(b1-3)GlcNAc) was -0.011. The “glycan array binding signal (z-score)” value (Gal(a1-2)Gal) was 0.18, the “glycan array binding signal (z-score)” value (Gal(a1-3)Gal) was 0.169 and the “glycan array binding signal (z-score)” value (Gal(a1-3)Gal(b1-3)Glc) was -0.335. The “glycan array binding signal (z-score)” value (Gal(a1-3)Gal(b1-3)GlcNAc) was -0.558, the “glycan array binding signal (z-score)” value (Gal(a1-3)Gal(b1-4)Glc) was 0.13 and the “glycan array binding signal (z-score)” value (Gal(a1-3)Gal(b1-4)GlcNAc) was -0.231. The “glycan array binding signal (z-score)” value [40] was 0.158, the “glycan array binding signal (z-score)” value [41] was 2.6 and the “glycan array binding signal (z-score)” value (Gal(a1-3)GalNAc) was 0.027.
